Results are given in words; binding and its absence hold for the method and conditions named. Binding seen in cells or lysates may run through a third protein. Some binding calls cover weakened binding; strength is not graded here.
T1: Kv10.1 (hEag1) (human (endogenous in MCF-7)) (UniProt O95259)
T1 sequence: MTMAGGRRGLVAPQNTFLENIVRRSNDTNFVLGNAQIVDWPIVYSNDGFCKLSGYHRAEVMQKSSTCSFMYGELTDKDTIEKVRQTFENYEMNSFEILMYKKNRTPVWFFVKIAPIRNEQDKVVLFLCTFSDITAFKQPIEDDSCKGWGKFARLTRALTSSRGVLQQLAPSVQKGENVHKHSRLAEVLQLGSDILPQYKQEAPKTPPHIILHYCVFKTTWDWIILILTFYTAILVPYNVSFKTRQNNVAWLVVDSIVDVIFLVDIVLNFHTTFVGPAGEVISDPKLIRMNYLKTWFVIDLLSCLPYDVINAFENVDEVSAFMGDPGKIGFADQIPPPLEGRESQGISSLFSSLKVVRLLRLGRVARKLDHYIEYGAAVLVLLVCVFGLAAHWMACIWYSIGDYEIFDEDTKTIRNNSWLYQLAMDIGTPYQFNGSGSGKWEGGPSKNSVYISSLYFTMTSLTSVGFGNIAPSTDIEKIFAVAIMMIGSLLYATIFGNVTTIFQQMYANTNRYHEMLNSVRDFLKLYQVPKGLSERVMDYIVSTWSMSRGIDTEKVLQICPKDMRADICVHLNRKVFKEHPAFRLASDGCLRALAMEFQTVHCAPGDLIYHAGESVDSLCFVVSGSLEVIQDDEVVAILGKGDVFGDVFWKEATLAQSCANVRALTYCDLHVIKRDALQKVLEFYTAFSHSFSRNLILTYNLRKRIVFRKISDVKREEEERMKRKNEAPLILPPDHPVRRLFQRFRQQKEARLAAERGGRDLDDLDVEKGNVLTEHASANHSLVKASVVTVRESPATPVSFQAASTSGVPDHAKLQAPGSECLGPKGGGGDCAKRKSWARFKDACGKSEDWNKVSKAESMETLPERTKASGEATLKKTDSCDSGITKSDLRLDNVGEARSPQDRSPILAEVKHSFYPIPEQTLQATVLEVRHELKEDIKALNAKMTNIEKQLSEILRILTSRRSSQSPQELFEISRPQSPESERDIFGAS

Amino acid sequences for entries named in this document (tags omitted).
UniProt Q96D31: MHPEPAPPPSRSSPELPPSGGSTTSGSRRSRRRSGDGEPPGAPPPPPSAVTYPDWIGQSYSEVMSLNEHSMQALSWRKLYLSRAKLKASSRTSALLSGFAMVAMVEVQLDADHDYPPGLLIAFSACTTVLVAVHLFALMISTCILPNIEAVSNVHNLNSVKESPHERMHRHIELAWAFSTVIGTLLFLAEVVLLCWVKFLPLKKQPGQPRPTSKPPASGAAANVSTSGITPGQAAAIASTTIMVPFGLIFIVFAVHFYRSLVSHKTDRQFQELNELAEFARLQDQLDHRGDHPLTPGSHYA

T2: SPCA2 (Secretory Pathway Ca2+-ATPase 2) (human (endogenous in MCF-7)) (UniProt O75185)
T2 sequence: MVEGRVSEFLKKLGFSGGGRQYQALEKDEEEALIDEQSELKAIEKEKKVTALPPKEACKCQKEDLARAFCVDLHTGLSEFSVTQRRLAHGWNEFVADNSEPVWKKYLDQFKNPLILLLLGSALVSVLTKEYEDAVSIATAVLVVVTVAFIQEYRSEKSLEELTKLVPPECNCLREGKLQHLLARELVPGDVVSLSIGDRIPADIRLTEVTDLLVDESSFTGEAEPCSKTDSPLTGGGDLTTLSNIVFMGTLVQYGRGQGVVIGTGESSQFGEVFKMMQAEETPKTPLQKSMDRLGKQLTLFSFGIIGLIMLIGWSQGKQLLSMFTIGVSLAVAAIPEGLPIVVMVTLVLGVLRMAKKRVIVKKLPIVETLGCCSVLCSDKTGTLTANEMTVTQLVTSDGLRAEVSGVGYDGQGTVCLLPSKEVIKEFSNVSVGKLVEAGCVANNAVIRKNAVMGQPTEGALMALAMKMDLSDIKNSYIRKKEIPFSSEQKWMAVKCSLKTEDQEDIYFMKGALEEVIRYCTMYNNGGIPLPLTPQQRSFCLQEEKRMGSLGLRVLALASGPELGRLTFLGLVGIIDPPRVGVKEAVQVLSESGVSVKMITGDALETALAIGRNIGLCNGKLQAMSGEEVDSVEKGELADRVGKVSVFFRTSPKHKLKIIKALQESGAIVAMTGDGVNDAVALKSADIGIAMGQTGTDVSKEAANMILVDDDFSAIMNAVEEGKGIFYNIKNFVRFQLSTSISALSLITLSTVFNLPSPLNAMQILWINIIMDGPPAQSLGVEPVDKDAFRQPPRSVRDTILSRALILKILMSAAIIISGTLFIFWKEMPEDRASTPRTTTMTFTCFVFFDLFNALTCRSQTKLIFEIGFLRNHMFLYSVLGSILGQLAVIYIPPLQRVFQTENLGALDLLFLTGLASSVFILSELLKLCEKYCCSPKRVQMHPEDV

B1: Kv10.1 (hEag1) (protein, UniProt O95259 1-989)
chain: MTMAGGRRGLVAPQNTFLENIVRRSNDTNFVLGNAQIVDWPIVYSNDGFCKLSGYHRAEVMQKSSTCSFMYGELTDKDTIEKVRQTFENYEMNSFEILMYKKNRTPVWFFVKIAPIRNEQDKVVLFLCTFSDITAFKQPIEDDSCKGWGKFARLTRALTSSRGVLQQLAPSVQKGENVHKHSRLAEVLQLGSDILPQYKQEAPKTPPHIILHYCVFKTTWDWIILILTFYTAILVPYNVSFKTRQNNVAWLVVDSIVDVIFLVDIVLNFHTTFVGPAGEVISDPKLIRMNYLKTWFVIDLLSCLPYDVINAFENVDEVSAFMGDPGKIGFADQIPPPLEGRESQGISSLFSSLKVVRLLRLGRVARKLDHYIEYGAAVLVLLVCVFGLAAHWMACIWYSIGDYEIFDEDTKTIRNNSWLYQLAMDIGTPYQFNGSGSGKWEGGPSKNSVYISSLYFTMTSLTSVGFGNIAPSTDIEKIFAVAIMMIGSLLYATIFGNVTTIFQQMYANTNRYHEMLNSVRDFLKLYQVPKGLSERVMDYIVSTWSMSRGIDTEKVLQICPKDMRADICVHLNRKVFKEHPAFRLASDGCLRALAMEFQTVHCAPGDLIYHAGESVDSLCFVVSGSLEVIQDDEVVAILGKGDVFGDVFWKEATLAQSCANVRALTYCDLHVIKRDALQKVLEFYTAFSHSFSRNLILTYNLRKRIVFRKISDVKREEEERMKRKNEAPLILPPDHPVRRLFQRFRQQKEARLAAERGGRDLDDLDVEKGNVLTEHASANHSLVKASVVTVRESPATPVSFQAASTSGVPDHAKLQAPGSECLGPKGGGGDCAKRKSWARFKDACGKSEDWNKVSKAESMETLPERTKASGEATLKKTDSCDSGITKSDLRLDNVGEARSPQDRSPILAEVKHSFYPIPEQTLQATVLEVRHELKEDIKALNAKMTNIEKQLSEILRILTSRRSSQSPQELFEISRPQSPESERDIFGAS

Key:
[1] = molecular target: T1, Kv10.1 (hEag1) (human (endogenous in MCF-7)); experiment: co-IP; immunoprecipitation with anti-Kv10.1 antibody (4 ug, overnight, 4 °C, magnetic beads A) from RIPA extract of MCF-7 cells, siCtl or siSPCA2; blot for Orai1
[2] = molecular target: T2, SPCA2 (Secretory Pathway Ca2+-ATPase 2) (human (endogenous in MCF-7)); experiment: co-IP; immunoprecipitation with anti-SPCA2 antibody (4 ug, overnight, 4 °C, magnetic beads A) from 1 mg RIPA extract of MCF-7 cells after 48 h of starvation, seeded or not on collagen 1, with or without MβCD (5 mg/ml, 2 h); blot for Kv10.1 and Orai1

Molecule	binding [1]	binding [2]
Orai1 (from UniProt Q96D31 1-301)	binds	binds
B1	–	binds
